Some of the results follow. Further columns of the screen follow, without active or inactive calls. The list favours compounds with an active or inconclusive main result. The note in brackets gives the kind of curve behind each potency; many fits are weak.

In general, AC50 refers to the concentration at which the activity in the assay is half-maximal. The low end stands for activity at low concentration, the high end for activity only at high concentration.

The nature of this test: qHTS Assay for Lipid Storage Modulators in Drosophila S3 Cells.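 As to cell number change: cells counted by Cell Tracker Red CMTPX staining in the red channel.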 The following applies: BODIPY lipid droplet fluorescence, 18-24 h; for cell number change: measured here: cell count max response, cells fed with added oleic acid. An outline of the steps: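 Drosophila S3 cells loaded with oleic acid (400 uM, as added) and compounds at several concentrations; lipid droplets imaged by 488-nm laser-scanning cytometry, 500–530 nm intensity and object ratio to cell channel. Percent activity normalized to 20 uM Triacsin C.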
A general note: qHTS replaces the single test concentration by a dilution series.

Setting [1] is: measured here: lipid fluorescence (Fed channel) AC50, cells fed with added oleic acid.
Setting [2] is: measured here: cell number channel AC50, cells fed with added oleic acid.

On to `CC(=O)c1ccc(NC(=O)CSc2nnc(C3CC3)n2C)cc1`, for which the AC50 under setting [1] is 0.082 µM [falling, partial curve, poor fit].

Take `Cc1ccc(C(=O)Nc2ccc3ccccc3c2)cc1`: the cell number change was -22.3%. The AC50 under setting [1] was 23.1 µM [falling, single point].

Regarding `Cc1ccc(C)c(N2CCN(C(=O)CCn3c(=S)[nH]c4cc5c(cc4c3=O)OCO5)CC2)c1`, the cell number change was determined as 20.7%. Also, the AC50 under setting [1] was 3.26 µM [rising, partial curve, poor fit].

For the compound `CCN1C(=O)CCC(C(=O)O)C1c1ccc(OC)cc1` (configuration not stated), the cell number change is -54.2%. For the same compound, under setting [2], the AC50 is 0.731 µM [falling, full curve].

Consider `O=C(COc1ncnc2c(Cl)cc(Cl)cc12)N1CCN(S(=O)(=O)c2ccccc2)CC1`, for which the cell number change came out at 48.4%. In addition, the AC50 under setting [2] is 4.11 µM [rising, full curve, poor fit].

As to `COc1cccc(/C=N/Nc2snc(SC)c2C#N)c1O`, the cell number change was -36.4%. Also, the concentration at half-maximal activity (AC50) under setting [2] was 18.4 µM [falling, single point]. The AC50 under setting [1] was 16.4 µM [falling, single point].

Consider `Cc1ccc2c(cnn2C(=O)CCCC(=O)NCc2ccc(Cl)cc2)c1`, for which the cell number change was -21.9%. In addition, under setting [1], the AC50 was 32.6 µM [falling, single point].

Take `CC(=O)Oc1cccc(/C=N\NC(=O)C(=O)N/N=C/c2cccc(OC(C)=O)c2)c1`: the cell number change is -2%. In addition, the half-maximal activity concentration (AC50) under setting [1] was 29.1 µM [falling, single point].

For `Cc1nn2c(-c3ccc(F)cc3)ccnc2c1Cl`, the cell number change was determined as 2.11%. Moreover, the AC50 under setting [2] is 0.731 µM [falling, partial curve, poor fit]. Further, the AC50 under setting [1] is 16.4 µM [rising, single point].

For `Cc1cc(O)c(C(C)C)cc1NC(=O)c1ccccc1Cl`, the cell number change was -13.9%.

For `CCOC(=O)c1cc(-c2ccccc2)n(CCC(=O)O)c1C`, the cell number change came to 19.8%. The AC50 under setting [1] is 29.1 µM [rising, single point].

`Cc1c(NC(=O)c2c(NC(=O)CNC3CC3)sc3c2CCCC3)c(=O)n(-c2ccccc2)n1C`: the cell number change was determined as 17.9%. Further, the AC50 under setting [1] was 0.00411 µM [rising, full curve, poor fit].

As to `Clc1ccccc1OCCn1cnc2ccccc21`, the cell number change was -30.1%. Moreover, the AC50 under setting [2] was 16.4 µM [falling, partial curve].

Take `O=C(c1cc2ccccc2[nH]1)N(Cc1cccnc1)CC1CCCN(C2CCCCC2)C1` (configuration not stated): the cell number change was found to be 1.65%. Besides, the AC50 under setting [1] is 2.91 µM [falling, single point].

As for `C=CCn1c(SCc2cc(C(=O)OC)c(C)o2)nnc1-c1ccncc1`, the cell number change worked out at 42.2%. Further, the AC50 under setting [2] is 20.6 µM [rising, single point]. The AC50 under setting [1] was 1.03 µM [rising, full curve, poor fit].

Turning to `Cc1nc(C(=O)NC(C)C)nn1-c1cc(Cl)cc(Cl)c1`, the cell number change was -25.1%. The AC50 under setting [2] was 1.64 µM [falling, single point].

As to `CC(=O)Nc1ccc(S(=O)(=O)Nc2ccc3c(c2)OCCO3)cc1`, the cell number change was determined as 22.9%. Besides, the AC50 under setting [1] was 0.00517 µM [falling, full curve, poor fit].

Turning to `CCc1ccc(NC(=O)c2cc(-c3ccc(OC)cc3)on2)cc1`, the cell number change is 13.9%. In addition, the concentration at half-maximal activity (AC50) under setting [1] is 6.51 µM [falling, single point].

Consider `COC(=O)c1cc(C#N)c(Oc2ccc(OC)cc2)nc1C`, for which the cell number change amounted to 104%. The AC50 under setting [2] is 18.4 µM [rising, single point]. Under setting [1], the AC50 is 23.1 µM [rising, single point].

Turning to `Cc1cccc(N(CC(=O)NC(C)(C)C)C(=O)CS(=O)CC(=O)Nc2ccc3c(c2)OCO3)c1` (configuration not stated), the cell number change is 15.5%. The AC50 under setting [1] is 0.184 µM [rising, full curve, poor fit].

Regarding `COc1ccc(OC)c(NC(=O)C2CCCNC2=O)c1` (configuration not stated), the cell number change is 54.2%. Also, the AC50 under setting [2] is 29.1 µM [rising, partial curve, poor fit]. Besides, the half-maximal activity concentration (AC50) under setting [1] was 2.91 µM [rising, single point].

For `Cn1cc(CNC(=O)C2c3ccccc3Oc3ccccc32)cn1`, the cell number change was -2.87%.

Consider `Cc1ccc(C(=O)c2oc3ccccc3c2NC(=O)c2cc(-c3cc(C)ccc3O)n[nH]2)cc1`, for which the cell number change was -18.4%. Besides, the AC50 under setting [1] was 23.1 µM [falling, single point].

For the compound `CC(C)C[C@H](NC(=O)NCCC1=CCCCC1)C(=O)O`, the cell number change came out at 1.6%. The AC50 under setting [2] is 6.51 µM [falling, single point]. Under setting [1], the AC50 is 0.0164 µM [rising, full curve, poor fit].

In the case of `C/C(=N\Nc1ncc(Cl)cc1Cl)c1cccs1`, the cell number change was -30.7%. Further, the AC50 under setting [1] was 0.13 µM [falling, full curve, poor fit].

As for `CC(=O)c1ccc(OCC(=O)Nc2ccccc2C(=O)NC2CC2)cc1`, the cell number change was -48.2%. Also, under setting [2], the AC50 is 18.4 µM [falling, partial curve, poor fit]. For the same compound, the half-maximal activity concentration (AC50) under setting [1] is 20.6 µM [falling, partial curve].

Regarding `CCOC(=O)/C=c1\s/c(=C(\C#N)C(=O)NC)n(-c2ccccc2)c1=O`, the cell number change is -3.13%. Moreover, the AC50 under setting [1] is 25.9 µM [falling, single point].

`COC(=O)c1ccc(OCc2nc(N)nc(N3CCOCC3)n2)cc1`: the cell number change stood at 5.61%. For the same compound, the AC50 under setting [1] is 0.82 µM [rising, single point].

On to `COCCNC(=O)c1ccc(-n2c(SCc3cc(F)ccc3F)nc3ccccc3c2=O)cc1`, for which the cell number change was -60.5%. Moreover, under setting [2], the AC50 is 29.1 µM [falling, single point]. Further, the AC50 under setting [1] is 29.1 µM [falling, single point].

Turning to `NS(=O)(=O)c1ccc(O)c(NC(=O)c2ccc([N+](=O)[O-])o2)c1`, the cell number change was 11.1%. The AC50 under setting [1] was 0.461 µM [falling, single point].

For `CCOc1ncccc1C(=O)Nc1ccc(C)cn1`, the cell number change was 22.7%. The AC50 under setting [1] was 18.4 µM [rising, single point].

Take `CC1(C)OC(=O)N(CC(=O)Nc2ccccc2)C1(C)O` (configuration not stated): the cell number change turned out to be 17.6%.

Consider `CC(C)[C@@H](C(=O)NC1CCN(Cc2ccccc2)CC1)N1C(=O)N2CCc3c([nH]c4ccccc34)[C@@]2(C)C1=O`, for which the cell number change is -9.71%. Besides, under setting [1], the AC50 was 29.1 µM [falling, single point].

In the case of `O=C(O)Cc1c(-c2ccccc2)c2cc(Cl)ccc2[nH]c1=O`, the cell number change was found to be 13.4%.

For `CC(=O)Nc1cccc(-c2nc3ccccc3s2)c1C`, the cell number change amounted to 10.4%. The AC50 under setting [2] was 1.3 µM [falling, full curve]. Under setting [1], the AC50 is 1.46 µM [falling, full curve].

As to `NC(=O)C1CCN(C(=O)C2(NC(=O)Nc3cccc(F)c3)CCCCC2)CC1`, the cell number change was determined as 19.7%.

Consider `COc1ccc(Cc2nnc(NC(=O)Nc3ccc(F)cc3)s2)cc1`, for which the cell number change came out at 29.9%. Besides, the AC50 under setting [1] was 3.26 µM [rising, full curve].

Source of the values: PubChem BioAssay AID2685 (National Center for Advancing Translational Sciences (NCATS), 2010).
